Laboratory results taken from PubChem BioAssay AID308 (DTP/NCI, 2004).
The list does not hold the whole screen: it is rich in T/C values a quarter to a half above the control, in often repeated tests (any T/C) and in doses without a T/C. Further doses and runs are listed elsewhere. T/C: endpoint of the treated group in % of that of the vehicle group. Some entries give survivors of the animals treated and no T/C: the source files T/C as zero there, which appears to mark a toxic dose or a test without result, not a measured value. Some doses without a T/C left all or most animals alive at the check, yet need not have been tolerated: the source hardly ever lists a survival T/C far under the control, and the zero likely stands for such cases as well. Survivors were counted at the toxicity check, usually on the fifth day, unless a day is given; later deaths do not show. Schedules are NCI's codes, read here as Q, the interval in days (D) or hours (H), X, the number of doses. Some entries hold several experiments; their values stand side by side, smallest first. Some schedules carry Z or #; the key to these is not given. For survival time, the PubChem record calls one and a half times the control and up active, and a quarter to a half above the control has no call in these data; cut-offs in other NCI protocols can differ. Some T/C values carry the count of animals alive at the toxicity check (mostly the fifth day); without a count, all were alive then. Marks such as (2×) stand for listed records that agree.

Tested on: BDF1 mice, L1210 6-MP/6-TG resistant leukemia ip, survival T/C
Experiment: NCI In Vivo Anticancer Drug Screen. Data for tumor model L1210 Leukemia resistant to 6-MP and 6-Thioguanine; NSC 755, NSC 752 (intraperitoneal) in B6D2F1 (BDF1) mice
Details: T/C endpoint: mean survival time, higher T/C = longer survival
Protocol: The antitumor activity of compounds was measured in mice bearing transplantable tumors. Survival or tumor size were measured and the results are expressed as the measurement made in the treated group (T) divided by the measurement made in the vehicle treated control group (C). The tumor model used in this assay is L1210 Leukemia resistant to 6-MP and 6-Thioguanine; NSC 755, NSC 752 (intraperitoneal) in B6D2F1 (BDF1) mice

[1] = dose: 117.0 mg/kg/injection, schedule: Q01DX001 (ip), vehicle: saline
[2] = dose: 134.0 mg/kg/injection, schedule: Q01DX001 (ip), vehicle: saline
[3] = dose: 175.0 mg/kg/injection, schedule: Q01DX001 (ip), vehicle: saline
[4] = dose: 200.0 mg/kg/injection, schedule: Q01DX001 (ip), vehicle: saline

`CSc1ncnc2c1ncn2C1OC(CO)C(O)C1O` (stereo unspecified) was tested, and the T/C (dose: 4.0 mg/kg/injection, schedule: Q01DX Z (ip), vehicle: saline) was 125 % of control, the T/C (dose: 5.0 mg/kg/injection, schedule: Q01DX015 (ip), vehicle: saline, evaluated on day 45) was 131 and 132 % of control and the T/C (dose: 5.0 mg/kg/injection, schedule: Q01DX015 (ip), vehicle: saline, run until all animals had died) was 99, 101, 122, 127 % of control. The T/C (dose: 5.0 mg/kg/injection, schedule: Q01DX Z (ip), vehicle: clinical formulation) was 137 % of control, the T/C (dose: 5.0 mg/kg/injection, schedule: Q01DX Z (ip), vehicle: saline) was 132 % of control and the T/C (dose: 6.0 mg/kg/injection, schedule: Q01DX Z (ip), vehicle: saline) was 128 % of control. For the same compound, the T/C (dose: 7.0 mg/kg/injection, schedule: Q01DX015 (ip), vehicle: saline) was 140 % of control, the T/C (dose: 7.0 mg/kg/injection, schedule: Q01DX Z (ip), vehicle: clinical formulation) was 140 % of control and the T/C (dose: 8.0 mg/kg/injection, schedule: Q01DX Z (ip), vehicle: saline) was 134 % of control. For the same compound, the T/C (dose: 8.8 mg/kg/injection, schedule: Q01DX015 (ip), vehicle: saline) was 127 % of control, the T/C (dose: 9.0 mg/kg/injection, schedule: Q01DX015 (ip), vehicle: saline, evaluated on day 46) was 129 % of control and the T/C (dose: 9.0 mg/kg/injection, schedule: Q01DX015 (ip), vehicle: saline, run until all animals had died) was 130 % of control. The T/C (dose: 10.0 mg/kg/injection, schedule: Q01DX015 (ip), vehicle: saline) was 97, 99, 137, 147, 162 % of control, the T/C (dose: 11.0 mg/kg/injection, schedule: Q01DX015 (ip), vehicle: saline) was 133 and 138 % of control and the T/C (dose: 11.0 mg/kg/injection, schedule: Q01DX Z (ip), vehicle: clinical formulation) was 143 % of control. The T/C (dose: 11.0 mg/kg/injection, schedule: Q01DX Z (ip), vehicle: saline) was 147 % of control, the T/C (dose: 12.0 mg/kg/injection, schedule: Q01DX015 (ip), vehicle: saline) was 137 % of control and the T/C (dose: 12.0 mg/kg/injection, schedule: Q01DX Z (ip), vehicle: saline) was 145 % of control. For the same compound, the T/C (dose: 13.0 mg/kg/injection, schedule: Q01DX015 (ip), vehicle: saline) was 133 and 137 % of control, the T/C (dose: 14.0 mg/kg/injection, schedule: Q## X032 (ip), vehicle: saline) was 127 % of control and the T/C (dose: 15.0 mg/kg/injection, schedule: Q01DX015 (ip), vehicle: saline) was 108, 110, 136, 145, 152 % of control. For the same compound, the T/C (dose: 16.0 mg/kg/injection, schedule: Q01DX Z (ip), vehicle: saline) was 147 [9 of 10 alive] and 149 % of control, the T/C (dose: 18.0 mg/kg/injection, schedule: Q01DX015 (ip), vehicle: saline) was 142 % of control and the T/C (dose: 20.0 mg/kg/injection, schedule: Q01DX010 (ip), vehicle: saline) was 134 % of control. For the same compound, the T/C (dose: 20.0 mg/kg/injection, schedule: Q01DX015 (ip), vehicle: saline, evaluated on day 46) was 142 and 158 % of control, the T/C (dose: 20.0 mg/kg/injection, schedule: Q01DX015 (ip), vehicle: saline, run until all animals had died) was 113, 120, 148, 161, 182 % of control and the T/C (dose: 20.0 mg/kg/injection, schedule: Q02DX008 (ip), vehicle: saline) was 133 % of control. The T/C (dose: 20.0 mg/kg/injection, schedule: Q## X004 (ip), vehicle: saline) was 125 % of control, the T/C (dose: 22.0 mg/kg/injection, schedule: Q## X032 (ip), vehicle: saline) was 140 % of control and the T/C (dose: 24.0 mg/kg/injection, schedule: Q01DX015 (ip), vehicle: saline) was 128 % of control. For the same compound, the survivor count (dose: 24.0 mg/kg/injection, schedule: Q01DX Z (ip), vehicle: clinical formulation) was 6 of 6, the T/C (dose: 24.0 mg/kg/injection, schedule: Q01DX Z (ip), vehicle: saline) was 133 % of control and the T/C (dose: 24.0 mg/kg/injection, schedule: Q01DX Z (oral), vehicle: saline) was 139 % of control. The T/C (dose: 25.0 mg/kg/injection, schedule: Q01DX015 (ip), vehicle: saline) was 122, 130 [9 of 10 alive], 149, 150 % of control, the T/C (dose: 25.0 mg/kg/injection, schedule: Q01DX Z (ip), vehicle: saline) was 139 % of control and the survivor count (dose: 30.0 mg/kg/injection, schedule: Q01DX010 (ip), vehicle: saline) was 10 of 10. For the same compound, the T/C (dose: 30.0 mg/kg/injection, schedule: Q01DX015 (ip), vehicle: saline) was 135 and 138 % of control, the T/C (dose: 30.0 mg/kg/injection, schedule: Q02DX008 (ip), vehicle: saline) was 145 % of control and the T/C (dose: 30.0 mg/kg/injection, schedule: Q## X004 (ip), vehicle: saline) was 136 % of control. For the same compound, the T/C (dose: 32.0 mg/kg/injection, schedule: Q01DX Z (oral), vehicle: saline) was 125 % of control, the T/C (dose: 32.0 mg/kg/injection, schedule: Q## X032 (ip), vehicle: saline) was 147 % of control and the survivor count (dose: 36.0 mg/kg/injection, schedule: Q01DX015 (ip), vehicle: saline) was 10 of 10. The survivor count (dose: 40.0 mg/kg/injection, schedule: Q01DX015 (ip), vehicle: saline) was 10 of 10, the T/C (dose: 48.0 mg/kg/injection, schedule: Q## X032 (ip), vehicle: saline) was 146 % of control and the survivor count (dose: 53.0 mg/kg/injection, schedule: Q01DX015 (ip), vehicle: saline) was 7 of 10 and 8 of 10. The T/C (dose: 61.0 mg/kg/injection, schedule: Q01DX001 (ip), vehicle: alkali diluted with saline) was 127 % of control, the survivor count (dose: 64.0 mg/kg/injection, schedule: Q01DX Z (ip), vehicle: saline) was 10 of 10 and the survivor count (dose: 64.0 mg/kg/injection, schedule: Q01DX Z (oral), vehicle: saline) was 10 of 10. The T/C (dose: 67.0 mg/kg/injection, schedule: Q02DX008 (ip), vehicle: saline) was 147 % of control, the T/C (dose: 72.0 mg/kg/injection, schedule: Q## X032 (ip), vehicle: saline) was 131 % of control and the survivor count (dose: 75.0 mg/kg/injection, schedule: Q01DX Z (ip), vehicle: saline) was 6 of 6. For the same compound, the survivor count (dose: 80.0 mg/kg/injection, schedule: Q01DX015 (ip), vehicle: saline) was 0 of 10 and 1 of 10, the T/C (dose: 90.0 mg/kg/injection, schedule: Q01DX001 (ip), vehicle: saline) was 128 % of control and the T/C (dose: 92.0 mg/kg/injection, schedule: Q01DX001 (ip), vehicle: saline) was 128 % of control. The survivor count (dose: 96.0 mg/kg/injection, schedule: Q01DX Z (oral), vehicle: saline) was 9 of 10, the T/C (dose: 100.0 mg/kg/injection, schedule: Q01DX001 (ip), vehicle: saline) was 118, 119, 121, 124 % of control and the T/C [1] was 97 [8 of 10 alive] and 140 % of control [7 of 10 alive]. The survivor count [1] was 3 of 10, 4 of 10, 5 of 10, the T/C (dose: 121.0 mg/kg/injection, schedule: Q01DX001 (ip), vehicle: saline) was 131 % of control and the T/C (dose: 125.0 mg/kg/injection, schedule: Q01DX001 (ip), vehicle: saline) was 120, 122 (2×), 124, 125 (2×), 127, 137 % of control. For the same compound, the T/C [2] was 128 % of control, the survivor count [2] was 5 of 10 and the T/C (dose: 138.0 mg/kg/injection, schedule: Q01DX001 (ip), vehicle: alkali diluted with saline) was 138 % of control. For the same compound, the survivor count (dose: 144.0 mg/kg/injection, schedule: Q01DX Z (oral), vehicle: saline) was 9 of 10, the T/C (dose: 150.0 mg/kg/injection, schedule: Q01DX001 (ip), vehicle: saline) was 111 [9 of 10 alive], 113 [9 of 10 alive], 117, 120, 121, 135 [9 of 10 alive], 138 [9 of 10 alive], 144 % of control and the survivor count (dose: 167.0 mg/kg/injection, schedule: Q01DX001 (ip), vehicle: saline) was 3 of 10. For the same compound, the T/C [3] was 111, 113, 118 [9 of 10 alive], 121, 121 [9 of 10 alive], 123, 126 [7 of 10 alive], 137 % of control [7 of 10 alive], the survivor count [3] was 0 of 10, 1 of 10, 2 of 10, 3 of 10 and the T/C (dose: 181.0 mg/kg/injection, schedule: Q01DX001 (ip), vehicle: saline) was 137 % of control. For the same compound, the T/C [4] was 118 [8 of 10 alive], 122 [9 of 10 alive], 130, 132 % of control [8 of 10 alive], the survivor count [4] was 0 of 10 and 6 of 10 and the survivor count (dose: 207.0 mg/kg/injection, schedule: Q01DX001 (ip), vehicle: saline) was 6 of 10. For the same compound, the survivor count (dose: 217.0 mg/kg/injection, schedule: Q01DX Z (oral), vehicle: saline) was 8 of 10, the T/C (dose: 274.0 mg/kg/injection, schedule: Q01DX001 (ip), vehicle: saline) was 132 % of control [7 of 10 alive] and the survivor count (dose: 310.0 mg/kg/injection, schedule: Q01DX001 (ip), vehicle: alkali diluted with saline) was 0 of 10 and 5 of 10. For the same compound, the survivor count (dose: 450.0 mg/kg/injection, schedule: Q01DX001 (ip), vehicle: saline) was 1 of 10.
